Drawing on US7452905B2, “Phenylalanine derivatives” (Ajinomoto Co., Inc., priority 2000, dated 2008), this text covers IC50 for 1 compound.

By UniProt entry, the sequences of proteins in these tests, tags left out. Residues count along the entry.
UniProt P13612, 34-1032 limits assumed: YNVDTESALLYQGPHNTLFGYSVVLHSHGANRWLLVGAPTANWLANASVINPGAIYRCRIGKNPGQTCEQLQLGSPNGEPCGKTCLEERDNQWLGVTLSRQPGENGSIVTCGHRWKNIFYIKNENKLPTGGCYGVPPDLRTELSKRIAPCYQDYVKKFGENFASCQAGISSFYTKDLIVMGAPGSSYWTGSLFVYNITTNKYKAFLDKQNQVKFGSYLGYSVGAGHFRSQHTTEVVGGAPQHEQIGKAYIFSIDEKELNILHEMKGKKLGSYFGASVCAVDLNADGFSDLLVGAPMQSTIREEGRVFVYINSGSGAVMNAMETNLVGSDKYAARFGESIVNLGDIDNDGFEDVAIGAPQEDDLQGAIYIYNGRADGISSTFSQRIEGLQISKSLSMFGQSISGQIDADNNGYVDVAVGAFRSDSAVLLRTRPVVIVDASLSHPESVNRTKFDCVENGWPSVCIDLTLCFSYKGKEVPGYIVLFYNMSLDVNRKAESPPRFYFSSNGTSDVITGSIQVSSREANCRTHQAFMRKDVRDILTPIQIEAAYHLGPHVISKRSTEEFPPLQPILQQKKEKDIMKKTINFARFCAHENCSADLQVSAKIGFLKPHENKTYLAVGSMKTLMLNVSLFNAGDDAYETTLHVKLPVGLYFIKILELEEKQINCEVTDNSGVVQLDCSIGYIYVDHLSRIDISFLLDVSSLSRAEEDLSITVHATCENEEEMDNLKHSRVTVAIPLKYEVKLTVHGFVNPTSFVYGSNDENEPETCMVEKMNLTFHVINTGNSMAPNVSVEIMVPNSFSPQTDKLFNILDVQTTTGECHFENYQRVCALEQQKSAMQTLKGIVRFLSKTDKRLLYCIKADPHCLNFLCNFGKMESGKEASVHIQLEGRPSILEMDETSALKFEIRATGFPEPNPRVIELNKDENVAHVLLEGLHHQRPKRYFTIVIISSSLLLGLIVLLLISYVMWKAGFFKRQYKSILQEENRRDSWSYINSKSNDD
UniProt P26010, 20-798 limits assumed: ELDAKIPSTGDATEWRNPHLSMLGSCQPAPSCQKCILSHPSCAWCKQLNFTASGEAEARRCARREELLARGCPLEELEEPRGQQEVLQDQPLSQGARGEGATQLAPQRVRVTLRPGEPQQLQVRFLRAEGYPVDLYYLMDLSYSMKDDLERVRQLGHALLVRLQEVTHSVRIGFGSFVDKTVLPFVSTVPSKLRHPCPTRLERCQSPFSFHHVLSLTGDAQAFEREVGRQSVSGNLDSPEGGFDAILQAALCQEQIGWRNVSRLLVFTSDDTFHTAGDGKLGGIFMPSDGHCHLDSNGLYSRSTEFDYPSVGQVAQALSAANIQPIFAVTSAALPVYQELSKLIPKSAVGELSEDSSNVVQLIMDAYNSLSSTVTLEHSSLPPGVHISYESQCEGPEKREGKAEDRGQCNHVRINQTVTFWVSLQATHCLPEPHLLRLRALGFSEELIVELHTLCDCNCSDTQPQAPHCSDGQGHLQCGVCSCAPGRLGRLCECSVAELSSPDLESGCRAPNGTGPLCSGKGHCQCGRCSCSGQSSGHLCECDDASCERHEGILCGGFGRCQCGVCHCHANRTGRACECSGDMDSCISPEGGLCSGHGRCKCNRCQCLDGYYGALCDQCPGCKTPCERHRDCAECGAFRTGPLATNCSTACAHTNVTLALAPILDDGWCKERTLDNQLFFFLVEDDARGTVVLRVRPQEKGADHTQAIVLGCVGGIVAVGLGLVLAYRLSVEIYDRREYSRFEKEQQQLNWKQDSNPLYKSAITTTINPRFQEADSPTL
UniProt P05556, 21-798 limits assumed: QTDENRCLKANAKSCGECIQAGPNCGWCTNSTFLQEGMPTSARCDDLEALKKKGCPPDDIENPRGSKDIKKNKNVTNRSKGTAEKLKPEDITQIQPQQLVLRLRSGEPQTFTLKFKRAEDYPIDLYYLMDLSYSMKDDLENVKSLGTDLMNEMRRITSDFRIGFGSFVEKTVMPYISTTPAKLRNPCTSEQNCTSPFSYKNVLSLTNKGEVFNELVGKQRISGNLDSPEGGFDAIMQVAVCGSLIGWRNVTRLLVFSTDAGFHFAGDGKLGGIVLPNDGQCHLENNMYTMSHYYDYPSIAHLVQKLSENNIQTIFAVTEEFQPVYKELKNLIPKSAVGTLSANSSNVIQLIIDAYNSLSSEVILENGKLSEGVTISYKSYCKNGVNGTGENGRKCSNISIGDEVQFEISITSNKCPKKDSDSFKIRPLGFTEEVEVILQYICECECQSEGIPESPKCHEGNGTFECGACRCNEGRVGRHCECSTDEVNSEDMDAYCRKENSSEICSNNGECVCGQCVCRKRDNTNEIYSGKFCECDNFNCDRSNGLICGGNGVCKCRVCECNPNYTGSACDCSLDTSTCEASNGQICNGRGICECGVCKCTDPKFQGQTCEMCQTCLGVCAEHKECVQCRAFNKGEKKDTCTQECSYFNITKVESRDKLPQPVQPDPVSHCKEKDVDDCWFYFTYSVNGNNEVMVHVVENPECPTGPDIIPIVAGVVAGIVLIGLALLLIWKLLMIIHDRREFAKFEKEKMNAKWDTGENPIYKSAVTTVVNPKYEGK

For one experiment, the target named is integrin α4β7 (Homo sapiens, UniProt P13612+P26010). Put plainly: VCAM antagonistic activity (VCAM-1/α4β7 binding assay), RPMI-8866 cells binding to VCAM-1. Conditions: read-out: Antagonistic Activity IC50 α 4 β 7/VCAM; RPMI-8866 cells binding to recombinant human VCAM-1, binding buffer with 4 mM MnCl2; 50% binding inhibition. On the procedure: VCAM Antagonistic Activity (VCAM-1/α4β7 Binding Assay)
The capacity of a test substance antagonistic to the binding of lymphoma cell strain RPMI-8866 of human B cells, known to express integrin α4β7, to VCAM-1 was determined. 100 μl/well of a solution (500 ng/ml) of recombinant human VCAM-1 (R & D systems) solution diluted with buffer A (0.1 M NaHCO3, pH 9.6) was added to a micro titer plate having 96 wells (Nunc Maxisorp). After the incubation at 4° C. overnight, unbound VCAM-1 was removed by washing once with PBS. […]
RPMI-8866 cells were incubated in Dulbecco modified Eagle medium containing 10 μg/ml of Calcein-AM (Wako Pure Chemical Industries, Ltd.) (SIGMA, hereinafter referred to as “DMEM”) at 37° C. for 30 minutes to label with fluorescence. […]
(§1) 50 μl of a test substance of various concentrations obtained by the dilution with the binding buffer was added to the plate. […] The fluorescence quantity of the bound cells remaining in the wells was determined with a fluorescent plate reader (Wallac 1420 ARVO multi-label counter) (filter excitation wave length: 485 nm, emission wave length: 535 nm). […] The binding rate of each test material in various concentrations was determined while the fluorescent strength of the test material-free well was determined to be 100%. […]

A further experiment addresses integrin α4 β1 (Homo sapiens, UniProt P05556+P13612). Briefly: VCAM antagonist activity (VCAM-1/α4β1 binding assay), Jurkat cells binding to VCAM-1. Conditions: read-out: Antagonistic Activity IC50 α 4 β 1/VCAM; Jurkat cells binding to recombinant human VCAM-1; 50% binding inhibition. On the procedure:
VCAM Antagonist Activity (VCAM-1/α4β1 Binding Assay)
The capacity of a test substance antagonistic to the binding of cell strain Jurkat (ATCC TIB-152) of human T cells, known to express integrin α4 β1, to VCAM-1 was determined. 100 μl/well of a solution (500 ng/ml) of recombinant human VCAM-1 (R & D systems) solution diluted with buffer A (0.1 M NaHCO3, pH 9.6) was added to a micro titer plate having 96 wells (Nunc Maxisorp). After the incubation at 4° C. overnight, unbound VCAM-1 was removed by washing once with PBS. […]
Jurkat cells were washed with Dulbecco modified Eagle medium (SIGMA, hereinafter referred to as “DMEM”) twice and then incubated in DMEM containing 10 μg/ml of Calcein-AM (Wako Pure Chemical Industries, Ltd.) at 37° C. in dark place for 30 minutes to label with fluorescence. […]
as §1

Structures were worked out from names or drawings and are uncertain.

On to `CN(C)c1ccc2c(c1)C(=O)N(c1ccc(C[C@H](NC(=O)c3c(Cl)cccc3Cl)C(=O)O)cc1)C2=O`, for which the IC50 on integrin α4β7 turned out to be 44 nM; at integrin α4 β1 it was 580 nM.
